# Experimental data: PubChem BioAssay (NCATS)
# “And” between values parts separate entries of the source, which are not always exact repeats. Identical values can stand only once. The list shows a part of the results. Shown are side measurements of this screen, not its main read-out; they come without a call. Most of these compounds were active or inconclusive in the main read-out, so they are no random draw. For some assays here: Words in brackets tell the shape of the fitted curve; partial curves, single points and poor fits give uncertain potencies.
# Key:
# [1] = qHTS Assay for Inhibitors of PDE-IV (AID 607); conditions: HEK293 ACTOne CNG channel cells, membrane potential fluorescence; measured here: parental cell counter-screen
# How it was run: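 ACTOne HEK293 cells carry a modified cAMP-gated CNG channel and express endogenous PDE4; plated 1000 cells/well, compounds up to 22.9 uM final. Membrane-potential dye fluorescence (ex 535/em 590) was read; parental cells received 10 uM forskolin + 100 uM RO 20-1724.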
# [2] = qHTS Assay for Lipid Storage Modulators (AID 1519); conditions: Drosophila S3 cells, BODIPY lipid droplet/cell ratio, laser cytometry, cells loaded with oleic acid
# How it was run: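 Cells seeded at 5,000 per well were treated with compounds over a concentration series and loaded with oleic acid (400 uM, as added). Lipid droplet fluorescence (488 nm excitation, 500-530 nm channel) was read by laser-scanning cytometry and normalized to 20 uM Triacsin C.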
# [3] = Nrf2 qHTS screen for inhibitors: Validation (AID 493153); conditions: A549 ARE-Fluc reporter, 18-24 h; AC50: CellTiter-Fluor fluorescence read, measured here: cytotoxicity CellTiter-Fluor AC50; viability change: measured here: cytotoxicity max response
# How it was run: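 A549 ARE_Fluc, 5% FBS OPTI-MEM; cpd titration, 18-24 h, 37°C/5% CO2. Read 1: CellTiter-Fluor (Ex 405/Em 525), cytotox. Read 2: luciferase lum, Nrf2 activity.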
# [4] = qHTS assay for small molecule antagonists of peroxisome proliferator-activated receptor gamma signaling (AID 588537); conditions: HEK293 PPARg-UAS-bla, beta-lactamase ratio, antagonist mode; measured here: W460 blue channel
# How it was run: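 Antagonist-mode β-lactamase reporter screen run as a titration series. HEK293 PPARγ-UAS-bla cells are stimulated with rosiglitazone (50 nM final) for 16 h, then CCF4 is read at 460/530 nm. Data are scaled between DMSO and rosiglitazone and fitted to the Hill equation.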
# [5] = qHTS assay for small molecule antagonists of retinoid X receptor alpha signaling (AID 588546); conditions: HEK293T RXRa-UAS-bla, beta-lactamase ratio, antagonist mode; measured here: W530 green channel, cytotoxicity proxy;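 note: cells stimulated with 9-cis-retinoic acid as agonist; % is set by controls: 0 for no effect and ±100 for the full control effect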
# How it was run: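 Beta-lactamase reporter inhibition, read as CCF4 fluorescence ratio (ex 405, em 460/530 nm) after 2 h at RT. HEK293T UAS-bla cells, 2500/well, were stimulated with 9-cis-RA at 500 or 100 nM final alongside test compound for 18 h at 37 C.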
# [6] = measured here: cell count channel max response
# [7] = measured here: cell number channel AC50
# [8] = measured here: lipid (BODIPY) channel AC50
# [9] = measured here: lipid channel max response
Structure (SMILES),AC50 [1],"max response [2, 6]","AC50 [2, 7]","AC50 [2, 8]","max response [2, 9]",AC50 [3],viability change [3] [%],AC50 [4],max response [5] [%]
CS(=O)(=O)Nc1ccc([N+](=O)[O-])cc1Oc1ccccc1,"15.8 µM [rising, partial curve, poor fit]",49.9%,"39.8 µM [rising, single point]","39.8 µM [rising, single point]",48%,"9.2 µM [falling, partial curve]",-35.5,,
CC(C)C(=O)c1c(C(C)C)nn2ccccc12,,80.4% and -22.1%,"11.2 µM [rising, partial curve, poor fit]","14.1 µM [rising, partial curve] and 7.94 µM [falling, single point]",111% and -22.6%,,-1.27,,
COc1cccc(Cn2c(=O)c(C)nc3cnc(Oc4ccccc4)nc32)c1,"12.6 µM [rising, single point]",34.3%,"3.16 µM [rising, partial curve, poor fit]","2 µM [rising, full curve, poor fit]",44.8%,,,,
O=C1OC(c2ccc(O)cc2)(c2ccc(O)cc2)c2ccccc21,,36.6%,"14.1 µM [rising, single point]","39.8 µM [rising, single point]",57.5%,,,"56.2 µM [falling, partial curve, poor fit]",7.42
COc1ccccc1-c1oc2ccccc2c(=O)c1OC,"15.8 µM [rising, partial curve, poor fit]",129%,"10 µM [rising, partial curve]","12.6 µM [rising, partial curve]",172%,,,,
O=S(=O)(NCCCCCCc1ccccc1)c1cccc2c(Cl)cccc12,"3.98 µM [rising, partial curve]",61.5%,"15.8 µM [rising, partial curve, poor fit]","25.1 µM [rising, partial curve, poor fit]",80.2%,,,,
COc1ccc(C(=O)N2CCC3(CCCN(c4ccncc4)C3)CC2)cc1,"12.6 µM [rising, single point]",22.8%,"3.16 µM [rising, single point]","3.16 µM [rising, partial curve, poor fit]",28.7%,,,,
